# Measurements reported in PubChem BioAssay AID504804 (Drosophila RNAi Screening Center, 2011)
# Test: 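dsRNAs that improve Kc cell survival under doxorubicin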 (primary screen)
# Cell system: Drosophila Kc cells
# Reagent: long dsRNA against Drosophila genes, 0.5 µg dsRNA per well
# Time to read-out: 96 h (48 h knock-down, then 48 h drug)
# Conditions: doxorubicin 5 µg/ml for 48 h, added 48 h after dsRNA
# Detection: 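Viability measured as cellular ATP by luminescence after 48 h knock-down then 48 h doxorubicin at 5 µg/ml; unnormalised plate counts for each replicate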
# Direction: raw ATP luminescence: higher = more viable cells, protection from doxorubicin
# Rule for the call: 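z-score of 2 or more over plate mean in both duplicates, retained only when retests and separate dsRNAs confirm the protection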
# The deposit covers about 19,000 reagents; shown is an unselected part of those that have a named target and a result. In the full data, 47 (0.25%) got an active call. 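Signals are raw, not normalised; exact z-scores behind calls not deposited; actives needed confirmation, so some wells reaching 2 SD are inactive.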 The numbers tell different reagents against one gene apart. Names joined by + are all predicted targets of the reagent. Reagent sequences are not shown.
Target gene,dsRNA no.,"raw ATP luminescence, replicate 1","raw ATP luminescence, replicate 2",activity call
CG9849,1,48223,57060,inactive
CG16965,1,38780,52350,inactive
UBL3 (Ubiquitin like 3),1,2.23e5,1.81e5,inactive
CanB (Calcineurin B),1,40110,62820,inactive
CG3328,1,68587,62147,inactive
CG3808,1,71640,57123,inactive
Tdc2 (Tyrosine decarboxylase 2),1,72087,63113,inactive
raw,1,38280,57963,inactive
raw,2,35387,53977,inactive
CG11722,1,47740,47877,inactive
Ranbp16,1,2.99e5,2.77e5,inactive
CG7342,1,40083,39400,inactive
CG11537,1,34650,50790,inactive
blp (black pearl),1,62820,70210,inactive
Eb1,1,38433,65277,inactive
Art2 (Arginine methyltransferase 2),1,29360,29687,inactive
GstZ1 (Glutathione S transferase Z1),1,62837,28503,inactive
CG14535,1,47327,84917,inactive
CG15461,1,3.74e5,3.63e5,inactive
FRG1 (FSHD region gene 1),1,65760,51930,inactive
PKD (Protein Kinase D),1,74080,78420,inactive
retm (real-time),1,89810,62217,inactive
tadr (torn and diminished rhabdomeres),1,78270,70250,inactive
CG9215,1,3.98e5,3.44e5,inactive
thr (three rows),1,56360,69103,inactive
Hesr (HES-related),1,3.50e5,3.22e5,inactive
gammaCOP (Coat Protein (coatomer) gamma),1,55230,54620,inactive
CG34433,1,73220,46990,inactive
Sin1 (SAPK-interacting protein 1),1,55610,40600,inactive
CG1941,1,53857,82933,inactive
Jhbp12 (Juvenile hormone binding protein 12),1,70340,61610,inactive
CG12546 + CG14452,1,53913,48623,inactive
CG13615,1,65030,54150,inactive
CG10139,1,49767,49770,inactive

3 consecutive records from above, for reference:
Target gene,dsRNA no.,"raw ATP luminescence, replicate 1","raw ATP luminescence, replicate 2",activity call
Ranbp16,1,2.99e5,2.77e5,inactive
CG7342,1,40083,39400,inactive
CG11537,1,34650,50790,inactive
